From patent US20160046678A1 (ZYNGENIA, published 2016)
Results are given in words; binding and its absence hold for the method and conditions named. Some results given as binding are weak or reduced against the parent protein; the word gives no strength.

T1: Angiopoietin-2 (Ang2) (human, UniProt O15123 19-496, biotin label in Examples 22-24)
T1 construct: also called rhAng2; recombinant Ang2
T1 sequence (looked up): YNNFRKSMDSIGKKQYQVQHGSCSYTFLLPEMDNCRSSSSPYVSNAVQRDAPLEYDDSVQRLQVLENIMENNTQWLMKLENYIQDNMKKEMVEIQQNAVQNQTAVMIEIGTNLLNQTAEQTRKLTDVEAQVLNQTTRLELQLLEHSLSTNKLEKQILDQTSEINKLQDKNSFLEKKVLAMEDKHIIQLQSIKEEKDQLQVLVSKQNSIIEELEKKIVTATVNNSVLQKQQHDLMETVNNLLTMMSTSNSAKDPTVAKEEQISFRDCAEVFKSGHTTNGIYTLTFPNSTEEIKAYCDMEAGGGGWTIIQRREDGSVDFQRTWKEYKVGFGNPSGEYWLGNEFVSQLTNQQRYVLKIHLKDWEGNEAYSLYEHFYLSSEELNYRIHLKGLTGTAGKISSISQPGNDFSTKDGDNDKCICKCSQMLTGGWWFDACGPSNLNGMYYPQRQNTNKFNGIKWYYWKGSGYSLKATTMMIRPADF


biological target: T1, Angiopoietin-2 (Ang2); experiment: Example 48, method not detailed

binding, binds:
DCYFYPNPPHCYTVEGGK [ANG731]
PLRSYMDCYWYPNPPHCY [ANG722]
FDEDCYFYPNPPHCYLLS [ANG741]
PHQRHLECYFYPNPPECY [ANG699]
DETECYWFPSPAHCYKDS [ANG736]
LILDCYFYPNPPHCYTST [ANG746]
SDMDCYFYPNPPHCFTPP [ANG696]
QPMDCFFYPNPPHCYAEE [ANG732]
APGYTQDCYWFPNPPHCY [ANG701]
PPTSLADCYFFPNPLHCY [ANG682]
SDTDCYFYPNPPHCYWDT [ANG713]
HPFDCYFYPNPPHCYTRS [ANG745]
NFRECVFYPNPPHCYDFG [ANG726]
MSLPHQNCYFFPNPTYCY [ANG688]
GPWECFFYPNPLHCFKEP [ANG710]
ASNDIHDCYFYPNPPHCY [ANG712]
SMHDCYYYPNPTHCYRGT [ANG734]
MVDECYFYPNPPHCYSNT [ANG721]
LQVDSLDCYFYPNPPHCY [ANG693]
DCYFYPNPPSCYEVQGAS [ANG709]
MGDDCYFYPNPPRCYVKP [ANG705]
LLAACYFYPNPPLCFTST [ANG683]
HSHHLTDCYYFPNPLHCY [ANG703]
ECYFYPNPPHCYMEHRST [ANG685]
MLVVPSDCYFYPNPSHCY [ANG692]
HIKDCYFFPNPPHCYKST [ANG698]
PSYNIFECFFFPNPPHCY [ANG743]
PRMDCYFYPNPPHCYNGQ [ANG687]
FFESSFDCYFFPNPNHCY [ANG691]
IYPECYFYPNPKSCYSDQ [ANG681]
KEIDCYFYPNPPHCYGKW [ANG727]
QLMDCYFFPNPHHCFESK [ANG694]
SESDCYFYPNPPHCYAVV [ANG744]
WLGRLSDCYFYPNPPHCY [ANG723]
SYFLTWDCYTYPNPPHCY [ANG716]
QSQNVVECYFYPNPPHCY [ANG748]
GEEDCYFYPNPPHCYSEL [ANG684]
LYPSLLDCYFYPNPTHCY [ANG719]
YGDECYFFPNPPHCFSWD [ANG689]
DCYFYPNPPHCYNERYEA [ANG695]
RFSSFHDCYFYPNPSHCY [ANG702]
AFVHCYFFPNPQHCYHRL [ANG714]
FHIDCYFYPNPPHCYTGA [ANG724]
FLADCYLFPNPPHCYLDY [ANG706]
GADTMQWNDCYFFPNPTHCY [ANG697]
TNQDCYFYPNPPHCFRDH [ANG728]
SYLDFTDCYFYPNPPHCY [ANG700]
PSADFAECFFYPNPPQCY [ANG711]
TEIECYFYPNPPQCYAIH [ANG686]
LGLDCYFYPNPPDCYHDA [ANG740]
EHEACYFYPNPPHCYESS [ANG742]
SNAQCYFYPNPLHCYKNA [ANG730]
IVSREYDCYFYPNPTHCY [ANG733]
LGEDCYWYPNPPHCYGML [ANG707]
MIFDCYFFPNPRHCYHEG [ANG715]
TGFECYFYPNPRHCYNDI [ANG718]
AQVDCYFFPNPTHCYFDR [ANG704]
NDSVVSECYFFPNPPHCY [ANG708]
YEFRWTDCYFYPNPPHCF [ANG747]
